Experimental data from PubChem BioAssay AID232 (DTP/NCI, 2004).
The list is a part of this screen's results and no random one: it covers a few groups of compounds. Other doses and runs of a compound may be missing. T/C: endpoint of the treated group in % of that of the vehicle group. For survival time, this PubChem deposit counts one and a half times the control or more as active, and values a quarter to a half above the control carry no call in these data; other NCI protocols may use other cut-offs. Some T/C values are marked as having no survivor count here; that says nothing about deaths at the dose. Schedule codes are those of the source, read here as Q, the interval in days (D) or hours (H), X, the number of doses. Some entries hold several experiments; the results are listed from low to high.

Test system: Gardner 6C3HED lymphosarcoma ip, C3AKF1 mice, survival T/C
Assay: NCI In Vivo Anticancer Drug Screen. Data for tumor model Lymphosarcoma Gardner 6C3HED (intraperitoneal) in C3AKF1 (CHKRF1) mice
Conditions: T/C endpoint: survival time, mean or median, schedule: Q01DX010 (ip), vehicle: saline, higher T/C = longer survival
Description: The antitumor activity of compounds was measured in mice bearing transplantable tumors. Survival or tumor size were measured and the results are expressed as the measurement made in the treated group (T) divided by the measurement made in the vehicle treated control group (C). The tumor model used in this assay is Lymphosarcoma Gardner 6C3HED (intraperitoneal) in C3AKF1 (CHKRF1) mice

With `ClCCN(CCCl)Cc1nc2ccccc2[nH]1` the T/C (dose: 1.25 mg/kg/injection) was 116 % of control [survivor count not shown], the T/C (dose: 2.5 mg/kg/injection) was 158 % of control [survivor count not shown] and the T/C (dose: 5.0 mg/kg/injection) was 183 % of control [survivor count not shown]. For the same compound, the T/C (dose: 10.0 mg/kg/injection) was 170 % of control [survivor count not shown].

For `O=C(O)CN(CCCl)CCCl`, the T/C (dose: 0.62 mg/kg/injection) was 100 % of control [survivor count not shown], the T/C (dose: 0.63 mg/kg/injection) was 116 % of control [survivor count not shown] and the T/C (dose: 1.25 mg/kg/injection) was 120 [survivor count not shown] and 122 % of control [survivor count not shown]. The T/C (dose: 2.5 mg/kg/injection) was 125 [survivor count not shown] and 136 % of control [survivor count not shown] and the T/C (dose: 5.0 mg/kg/injection) was 90 % of control [survivor count not shown].

`ClCCNCCCl` was tested, and the T/C (dose: 18.8 mg/kg/injection) was 91 [survivor count not shown], 96 [survivor count not shown], 109 % of control [survivor count not shown], the T/C (dose: 37.5 mg/kg/injection) was 107 [survivor count not shown], 112 [survivor count not shown], 114 % of control [survivor count not shown] and the T/C (dose: 75.0 mg/kg/injection) was 120 [survivor count not shown], 121 [survivor count not shown], 147 % of control [survivor count not shown].

In the case of `CC(C(=O)O)N(CCCl)CCCl` (stereo unspecified), the T/C (dose: 0.25 mg/kg/injection) is reported as 116 % of control [survivor count not shown], the T/C (dose: 0.5 mg/kg/injection) is reported as 108 [survivor count not shown] and 145 % of control [survivor count not shown] and the T/C (dose: 1.0 mg/kg/injection) is reported as 125 [survivor count not shown] and 136 % of control [survivor count not shown]. The T/C (dose: 2.0 mg/kg/injection) was 112 [survivor count not shown] and 159 % of control [survivor count not shown] and the T/C (dose: 4.0 mg/kg/injection) was 86 % of control [survivor count not shown].

With `NC1CCCCC1.NP(=O)(O)N(CCCl)CCCl` the T/C (dose: 15.6 mg/kg/injection) was 141 [survivor count not shown] and 177 % of control [survivor count not shown], the T/C (dose: 21.3 mg/kg/injection) was 191 % of control [survivor count not shown] and the T/C (dose: 31.3 mg/kg/injection) was 209 % of control [survivor count not shown]. For the same compound, the T/C (dose: 62.5 mg/kg/injection) was 108 [survivor count not shown] and 209 % of control [survivor count not shown].
